In the supplement of paper PMC10735217 one finds TEAD-luciferase reporter activity data, which are given here for 27 compounds.

Some of the results follow. Single values are uncertain here, since repeats match poorly.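 In a drug-repurposing library screen, luminescence reads luciferase driven by eight TEAD-binding elements, stably integrated into human kidney-derived cells. Compounds scoring over five robust Z scores above the plate mean are called hits.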

The test concerns HEK293A TEAD-LUC reporter. Briefly: TEAD-luciferase reporter activity (YAP activation), robust Z score vs plate; higher = stronger YAP/TEAD activation. The following applies: 24 h.

Turning to `CCC1OC(=O)C(C)C(OC2CC(C)(OC)C(O)C(C)O2)C(C)C(OC2OC(C)CC(N(C)C)C2O)C(C)(O)CC(C)C2NC(COCCOC)OC(C2C)C1(C)O` (centres undefined) [dirithromycin], the TEAD-luciferase reporter activity was inactive: -1.15 (compound concentration: 200 nM), inactive: 3.82 (compound concentration: 2 uM) and inactive: -0.918 (compound concentration: 10 uM).
As to `COc1ccc(CC2c3cc(OC)c(OC)cc3CC[N+]2(C)CCC(=O)OCCCCCOC(=O)CC[N+]2(C)CCc3cc(OC)c(OC)cc3C2Cc2ccc(OC)c(OC)c2)cc1OC` (centres undefined) [cisatracurium besylate], the TEAD-luciferase reporter activity (compound concentration: 2 uM) was inactive: -0.775.
Regarding `COc1ccc(CC2c3cc(OC)c(OC)cc3CC[N+]2(C)CCC(=O)OCCCCCOC(=O)CC[N+]2(C)CCc3cc(OC)c(OC)cc3C2Cc2ccc(OC)c(OC)c2)cc1OC` (centres undefined), the TEAD-luciferase reporter activity (compound concentration: 200 nM) was active: 7.42 and the TEAD-luciferase reporter activity (compound concentration: 10 uM) is inactive: -0.0962.
As for `CN[C@H]1CN(c2ccc3c(=O)c(C(=O)O)cn(-c4nccs4)c3n2)C[C@@H]1OC` [vosaroxin], the TEAD-luciferase reporter activity (compound concentration: 200 nM) is inactive: -0.677, the TEAD-luciferase reporter activity (compound concentration: 2 uM) was inactive: -1.66 and the TEAD-luciferase reporter activity (compound concentration: 10 uM) was inactive: 0.0145.
Turning to `C[C@]12CC[C@@H]3c4ccc(OC(=O)c5ccccc5)cc4CC[C@H]3[C@@H]1CC[C@@H]2O`, the TEAD-luciferase reporter activity runs as follows: (compound concentration: 200 nM) inactive: 1.52; (compound concentration: 10 uM) inactive: -1.04.
For `C[C@]12CC[C@@H]3c4ccc(OC(=O)c5ccccc5)cc4CC[C@H]3[C@@H]1CC[C@@H]2O` [Estradiol benzoate], where the note is “compound concentration: 2 uM”, the TEAD-luciferase reporter activity was inactive: -1.05.
With `OC1C[Si](c2ccc(F)cc2)(c2ccc(F)cc2)CC1N1CCN(c2ccccc2)CC1` (centres undefined), the TEAD-luciferase reporter activity runs as follows: (compound concentration: 200 nM) inactive: -0.487; (compound concentration: 10 uM) inactive: 3.16.
Consider `Oc1cccc(c1)/C/1=C/2\CCC(=N2)/C(=c\2/cc/c(=C(/C3=N/C(=C(\c4[nH]c1cc4)/c1cccc(c1)O)/C=C3)\c1cccc(c1)O)/[nH]2)/c1cccc(c1)O` [Temoporfin], for which the TEAD-luciferase reporter activity is, setting by setting: (compound concentration: 200 nM) inactive: 0.453; (compound concentration: 2 uM) inactive: -1.48; (compound concentration: 10 uM) inactive: 0.323.
Taken in the same sequence, the figures for `CC(C)(C)NCC(O)COc1cccc2c1CCN(C=O)C2` (centres undefined) were inactive: 0.716, inactive: -0.916 and inactive: 1.37.
As for `CCCn1cnc2c1c(=O)n(CCCCC(C)(C)O)c(=O)n2C`, the TEAD-luciferase reporter activity by setting is: (compound concentration: 200 nM) inactive: -0.794; (compound concentration: 2 uM) inactive: 0.212; (compound concentration: 10 uM) inactive: -0.465.
Taken in the same sequence, the figures for `CCN1CCN(c2cc(-c3ccccc3)c3ccccc3n2)CC1` were inactive: 2.56, inactive: 0.312 and inactive: -0.438.
As for `C[C@H](N)C(=O)N[C@@H](CCC(=O)N[C@@H](CC(=O)NCC(=O)O)C(=O)O)C(=O)O` [Epithalon], the TEAD-luciferase reporter activity was inactive: 3.21 (compound concentration: 200 nM), inactive: 0.535 (compound concentration: 2 uM) and inactive: -0.621 (compound concentration: 10 uM).
As to `CON=C(C(=O)N[C@@H]1C(=O)N2C(C(=O)O)=C(COC(N)=O)CS[C@H]12)c1ccco1` [_:_2016-03-02: cefuroxime, MiddleBrook], the TEAD-luciferase reporter activity (compound concentration: 2 uM) was inactive: -1.04.
For `CON=C(C(=O)N[C@@H]1C(=O)N2C(C(=O)O)=C(COC(N)=O)CS[C@H]12)c1ccco1` [Cefuroxime], the TEAD-luciferase reporter activity (compound concentration: 200 nM) is inactive: -0.387 and the TEAD-luciferase reporter activity (compound concentration: 10 uM) was inactive: -0.926.
Taken in the same sequence, the figures for `Cc1cc2ncc(C(=O)N3CCN(C)CC3)cn2n1` were inactive: -0.747 and inactive: 0.551.
`COc1cc(C(=O)N[C@@H](CC(=O)O)c2ccccc2C)nn1-c1ccccc1F`: the TEAD-luciferase reporter activity (compound concentration: 200 nM) was inactive: 0.931, the TEAD-luciferase reporter activity (compound concentration: 2 uM) is inactive: 0.629 and the TEAD-luciferase reporter activity (compound concentration: 10 uM) was inactive: -1.55.
With `CC(=O)N1CCCC1C(=O)N1CCC(c2ccccc2)CC1` (centres undefined), the TEAD-luciferase reporter activity runs as follows: (compound concentration: 200 nM) inactive: -0.412; (compound concentration: 10 uM) inactive: 4.86.
In the case of `CCOc1ccc(C[C@H]2NC(=O)CCSSC[C@@H](C(=O)N3CCC[C@H]3C(=O)N[C@@H](CCCN)C(=O)NCC(N)=O)NC(=O)[C@H](CC(N)=O)NC(=O)[C@H]([C@@H](C)O)NC(=O)[C@H]([C@@H](C)CC)NC2=O)cc1` [antocin II], the TEAD-luciferase reporter activity is, setting by setting: (compound concentration: 200 nM) inactive: -0.679; (compound concentration: 2 uM) inactive: -0.949; (compound concentration: 10 uM) inactive: 3.12.
On to `C/C(=C(\CCO)SSCC1CCCO1)N(C=O)Cc1cnc(C)nc1N` (centres undefined) [Fursultiamine], for which the TEAD-luciferase reporter activity (compound concentration: 200 nM) was inactive: 0.346, the TEAD-luciferase reporter activity (compound concentration: 2 uM) is inactive: -0.747 and the TEAD-luciferase reporter activity (compound concentration: 10 uM) was inactive: 3.81.
As for `CCCc1nc(NCCO)nc(N2CCOCC2)n1`, the TEAD-luciferase reporter activity reads like this: (compound concentration: 200 nM) active: 5.83; (compound concentration: 2 uM) inactive: 0.613; (compound concentration: 10 uM) inactive: -0.778.
Taken in the same sequence, the figures for `CC(C)CCCC(NS(=O)(=O)c1ccc(Cl)cc1)c1ccc(CCCC(=O)O)cc1` (centres undefined) were inactive: -1.96, inactive: -1.02 and inactive: 1.12.
Taken in the same sequence, the figures for `CC(CS)C(=O)N1CCCC1C(=O)O` (centres undefined) [captopril slow release] were inactive: -0.868, inactive: -1.64 and inactive: 1.74.
In the case of `CC(=O)OCCc1ccc(OC[C@@H](O)CNC(C)(C)C)cc1`, the TEAD-luciferase reporter activity is, setting by setting: (compound concentration: 200 nM) inactive: 0.544; (compound concentration: 2 uM) inactive: -0.341; (compound concentration: 10 uM) inactive: -1.2.
Taken in the same sequence, the figures for `CCN(CC)CCC1(c2ccccc2)C(=O)Oc2ccccc21` (centres undefined) were inactive: -0.563, inactive: -1.04 and inactive: 0.188.
Regarding `CC(C)(CO)CCCCOCCCCC(C)(C)CO`, the TEAD-luciferase reporter activity (compound concentration: 200 nM) was inactive: -0.796, the TEAD-luciferase reporter activity (compound concentration: 2 uM) was inactive: 2.38 and the TEAD-luciferase reporter activity (compound concentration: 10 uM) was inactive: 3.68.
Taken in the same sequence, the figures for `CC(C)(C)NCC(O)c1cc(Br)no1` (centres undefined) [Broxaterol] were inactive: -2.02, inactive: -0.909 and inactive: -1.58.
Taken in the same sequence, the figures for `N#Cc1cccc(NS(=O)(=O)c2ccc(-c3cccc(N)c3)cc2)c1` were inactive: -0.331, inactive: 0.0175 and inactive: 0.653.
